Data as given in PMC4285013.
These are yes or no findings as the source states them, for the method shown. Binding can be weak; no strength is given.

By UniProt entry, the sequences of proteins in these tests, tags left out. Where a name states a change or a piece, a line headed by the entry shows the natural chain unless it says otherwise.
UniProt Q40168: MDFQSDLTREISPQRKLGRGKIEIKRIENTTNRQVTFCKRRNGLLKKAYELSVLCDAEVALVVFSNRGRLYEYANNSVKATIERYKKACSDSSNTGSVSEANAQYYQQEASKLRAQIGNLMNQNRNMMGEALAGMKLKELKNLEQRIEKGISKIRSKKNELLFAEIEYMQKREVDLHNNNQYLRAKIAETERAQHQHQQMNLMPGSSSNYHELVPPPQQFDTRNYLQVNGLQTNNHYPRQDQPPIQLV
UniProt Q8VXG0: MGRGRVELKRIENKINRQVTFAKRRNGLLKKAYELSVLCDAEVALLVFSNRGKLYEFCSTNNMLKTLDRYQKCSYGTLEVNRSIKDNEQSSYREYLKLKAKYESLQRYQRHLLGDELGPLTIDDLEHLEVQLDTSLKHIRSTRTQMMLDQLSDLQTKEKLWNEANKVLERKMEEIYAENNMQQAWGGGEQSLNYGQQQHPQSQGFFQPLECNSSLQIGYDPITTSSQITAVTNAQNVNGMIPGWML

Experiments:
[1] = target: GST-SIHDA1 (tomato (Solanum lycopersicum)); assay: pull-down; GST fusion proteins on GST resin, TM29-His or TAG1-His added, 2 h at 4 C; 50 mM Tris-HCl pH 7.5, 100 mM NaCl, 0.25% Triton X-100, 35 mM beta-mercaptoethanol; immunoblot with anti-His antibody; both purified
[2] = target: GST-SIHDA3 (tomato (Solanum lycopersicum)); assay: as above
[3] = target: TAG1 (TOMATO AGAMOUS1) in pGBKT7 (yeast two-hybrid bait) (tomato (Solanum lycopersicum)) (UniProt Q40168); assay: two-hybrid; Matchmaker Gold Yeast Two-Hybrid System (Clontech); SlHDACs in pGADT7, MADS-box genes in pGBKT7; growth on minimal medium -Leu/-Trp/-Ade/-His, also with 4 mg/mL X-alpha-Gal
[4] = target: TM29 (TOMATO MADS BOX29) in pGBKT7 (yeast two-hybrid bait) (tomato (Solanum lycopersicum)) (UniProt Q8VXG0); assay: as above

Row | Substance | binding [1] | binding [2] | binding [3] | binding [4]
1 | TAG1-His (from UniProt Q40168 1-248) | binds | binds |  | 
2 | SlHDA6 in pGADT7 (yeast two-hybrid prey) (from UniProt A0A3Q7GZP0) (enzyme) |  |  | binds | binds
3 | TM29-His (from UniProt Q8VXG0) | binds |  |  | 
